Assay results from PubChem BioAssay AID504834 (National Center for Advancing Translational Sciences (NCATS), 2011).
Among all 320,000 compounds or so, about 22,000 (6.9%) were called active. The inconclusive results got no clear call from the source; some entries with a clear call stand among them for comparison. Calls come from the whole dose curve; as a rule, active = well fitted inhibition curve with a large enough effect; inconclusive = small, poorly fitted or top-dose-only effect, or another doubt; inactive = no such curve, though single readings can be large or run the other way. Potencies of inconclusive entries are doubtful fits and often do not repeat.

Assay: Primary qHTS for delayed death inhibitors of the malarial parasite plastid, 96 hour incubation
Details: P. falciparum luciferase reporter growth; series mostly up to 28.7 µM; activity change, negative = inhibition: at the top concentration
Summary of the method: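 Plates of compound plus infected erythrocytes (2% hematocrit, 0.05% parasitemia final) incubate 96 hours, 37 C, 5% CO2. Detection reagent added; reduced luminescence from the parasites' luciferase reporter flags inhibition.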
% is set by controls: 0 for no effect and ±100 for the full control effect; potency is the fitted concentration of half-maximal effect.

Structure (SMILES)	activity change, negative = inhibition	Potency
Cc1ccc(C(=O)/C=C/c2ccc(Br)cc2)o1	inactive: 90.7%	
CC1C/C(=N/Nc2ccc([N+](=O)[O-])cc2[N+](=O)[O-])CC(C)(C)C1 (stereo unspecified)		inconclusive: 9.28 µM [inhibitor, partial curve, poor fit]
N#Cc1ccc(CSc2nnc3ccccn23)cc1		inconclusive: 18.5 µM [inhibitor, single point]
CCC(C)(C)NC(=O)c1ccc(S(=O)(=O)N2CCCCCC2)cc1		inconclusive: 0.208 µM [inhibitor, full curve, poor fit]
COc1cccc(C(=O)SC2=NCCS2)c1	inactive: -23.7% [at 5.75 µM]	
Cc1ccc(C(=O)Nc2ccc(NC(=O)c3cccs3)cc2)c(C)c1		inconclusive: 9.28 µM [inhibitor, partial curve, poor fit]
CCN(CC)C(=O)/C(NC(=O)c1ccccc1)=C(/Sc1ncccn1)c1ccccc1		inconclusive: 20.8 µM [inhibitor, single point]
CCN(C(=O)COC(=O)c1ccc2[nH]c3c(c2c1)CCCC3)C1CCS(=O)(=O)C1 (stereo unspecified)	inactive: -7.47%	
O=C(CCCn1ncn2c(cc3occc32)c1=O)N1CCc2ccccc2C1		inconclusive: 18.5 µM [inhibitor, single point]
Cc1cc(OCC(=O)NCc2ccncc2)c2c(C)cc(=O)oc2c1	inactive: 2.66%	
CC(C)c1cc(C(=O)N/N=C/c2ccoc2)cs1	inactive: -12.3%	
Cc1ccc(NS(=O)(=O)c2c(C)nc3sccn3c2=O)c(C)c1		inconclusive: 9.28 µM [inhibitor, partial curve]
COc1ccc(CCN2CCCC(CN(C)Cc3cc(OC)c(OC)c(OC)c3)C2)cc1 (stereo unspecified)		inconclusive: 13.1 µM [inhibitor, single point]
Cc1cccc(NNC(N)=S)c1C	inactive: 12.3%	
CSCCC(NC(=O)c1ccccc1Br)C(=O)NC(C)CCc1ccccc1 (stereo unspecified)		inconclusive: 0.415 µM [inhibitor, full curve]
O=C1c2ccccc2S(=O)(=O)N1Cc1nnc(-c2ccccc2Br)o1	inactive: 10.7%	
Cc1ccc(S(=O)(=O)NCCC(=O)Nc2ccc(S(=O)(=O)NC(C)C)cc2)cc1	inactive: 7.49%	
Cc1ccccc1OCc1nnc(SCC(=O)N2c3ccccc3Sc3ccc(Cl)cc32)o1		active: 13.1 µM
O=C(Nc1cccc2ccccc12)c1cn(-c2ccccc2)nc1-c1cccs1	inactive: -1.1%	
CC(C)(C)NC(=O)CN(C(=O)CS(=O)CC(=O)Nc1ccc(F)cc1)c1ccc(F)c(Cl)c1 (stereo unspecified)		inconclusive: 18.5 µM [inhibitor, single point]
COc1ccccc1N(CC(=O)Nc1ccc(Cc2ccncc2)cc1)S(=O)(=O)c1ccccc1		inconclusive: 8.28 µM [inhibitor, partial curve]
CC(=O)c1c(O)n(C)c(=S)n(-c2ccccc2)c1=O	inactive: 19.7%	
CC(C)(C#N)N([O-])C=C[N+](=O)C(C)(C)C#N		inconclusive: 18.5 µM [inhibitor, single point]

8 compounds out of the list, ordered by number of heavy atoms, rising.
Structure (SMILES)	activity change, negative = inhibition	Potency
COc1cccc(C(=O)SC2=NCCS2)c1	inactive: -23.7% [at 5.75 µM]	
Cc1ccc(C(=O)/C=C/c2ccc(Br)cc2)o1	inactive: 90.7%	
N#Cc1ccc(CSc2nnc3ccccn23)cc1		inconclusive: 18.5 µM [inhibitor, single point]
Cc1ccc(NS(=O)(=O)c2c(C)nc3sccn3c2=O)c(C)c1		inconclusive: 9.28 µM [inhibitor, partial curve]
CCC(C)(C)NC(=O)c1ccc(S(=O)(=O)N2CCCCCC2)cc1		inconclusive: 0.208 µM [inhibitor, full curve, poor fit]
CSCCC(NC(=O)c1ccccc1Br)C(=O)NC(C)CCc1ccccc1 (stereo unspecified)		inconclusive: 0.415 µM [inhibitor, full curve]
Cc1ccc(S(=O)(=O)NCCC(=O)Nc2ccc(S(=O)(=O)NC(C)C)cc2)cc1	inactive: 7.49%	
COc1ccc(CCN2CCCC(CN(C)Cc3cc(OC)c(OC)c(OC)c3)C2)cc1 (stereo unspecified)		inconclusive: 13.1 µM [inhibitor, single point]

Continuation:

Structure (SMILES)	activity change, negative = inhibition	Potency
C=C(C)COc1ccc2c3c(c(=O)oc2c1OCC(=C)C)CCC3		inconclusive: 9.28 µM [inhibitor, single point]
COC(=O)c1ccccc1NC(=O)c1onc(C)c1Cl		active: 5.22 µM
O=C(c1ccc(F)c(S(=O)(=O)N2CCOCC2)c1)N1CCN(c2ccc(F)cc2)CC1		active: 6.57 µM
CCC(Sc1ccc2nnc(-c3cccnc3)n2n1)C(=O)OC (stereo unspecified)		inconclusive: 8.28 µM [inhibitor, partial curve, poor fit]
Cc1ccc(NC(=S)N/N=C2\CC3CC=CC23)c(C)c1 (stereo unspecified)		inconclusive: 11.7 µM [inhibitor, single point]
COc1ccc(CC(=O)NCCCSc2ccccc2)cc1OC		inconclusive: 18.5 µM [inhibitor, single point]
Cc1ccc(-c2cc(C(=O)O)c3cc(Br)ccc3n2)s1		inconclusive: 2.33 µM [inhibitor, full curve]
Cc1ccc(/C=N/NC(=O)CSc2nc3ccccc3n2Cc2ccccc2)o1		inconclusive: 0.037 µM [inhibitor, full curve, poor fit]
COc1ccc(/C=C2\SC(=S)N(CC(=O)NCCO)C2=O)cc1		inconclusive: 18.5 µM [inhibitor, single point]
CCC1=Nc2cc(C(=O)NCc3ccco3)ccc2Sc2ccccc21	inactive: 10.8%	
CCOc1ccc(C(=O)NCC(=O)OCc2nnc(-c3ccccc3)o2)cc1OCC		inconclusive: 0.522 µM [inhibitor, partial curve, poor fit]
CCOc1cc(N2CCOCC2)c(OCC)cc1NC(=O)CCC1CCCC1		inconclusive: 18.5 µM [inhibitor, single point]
Cc1cc(OCC(=O)OCC(=O)N2CC(C)CC(C)C2)ccc1Cl (stereo unspecified)	inactive: -25.8%	
Cc1cc(Cn2nnc3ccccc32)c(O)c(C(C)(C)C)c1		inconclusive: 18.5 µM [inhibitor, single point]
O=C(Nc1ccnn1C1CCN(C(=O)c2cc(Cl)ccc2F)CC1)C1CCOC1 (stereo unspecified)		inconclusive: 11.7 µM [inhibitor, partial curve, poor fit]
COc1ccc(NC(=O)/C(C#N)=C\C=C\c2ccco2)cc1	inactive: -11.4%	
O=C(CSc1ccccc1)N/N=C/c1ccccc1O	inactive: 7.21%	
Cc1cc(CNC(=O)c2cc(COc3ccc(F)c(F)c3)on2)nn1C		inconclusive: 14.7 µM [inhibitor, partial curve]
CCCCC1CCC(C(=O)Nc2ccccc2N2CCOCC2)CC1 (stereo unspecified)		inconclusive: 18.5 µM [inhibitor, single point]
Cc1cc(=O)[nH]c(SCC(=O)Nc2ccc(C)c(S(=O)(=O)N3CCCCC3)c2)n1		inconclusive: 9.28 µM [inhibitor, single point]
O=C(CSc1nnc(SCc2ccc(Cl)cc2)s1)N/N=C/c1ccc(Cl)cc1Cl	inactive: 7.49%	
COCCNC(=O)NC12CC3(C)CC(C)(CC(C)(C3)C1)C2		inconclusive: 8.28 µM [inhibitor, partial curve]
Cc1ccc(/C=N/NC(=O)Cn2cnc3c2c(=O)n(C)c(=O)n3C)s1		inconclusive: 18.5 µM [inhibitor, single point]
